Test results taken from publication PMC11144933.

Chains of the proteins cited; added tags and fusions are not shown.
UniProt Q61180: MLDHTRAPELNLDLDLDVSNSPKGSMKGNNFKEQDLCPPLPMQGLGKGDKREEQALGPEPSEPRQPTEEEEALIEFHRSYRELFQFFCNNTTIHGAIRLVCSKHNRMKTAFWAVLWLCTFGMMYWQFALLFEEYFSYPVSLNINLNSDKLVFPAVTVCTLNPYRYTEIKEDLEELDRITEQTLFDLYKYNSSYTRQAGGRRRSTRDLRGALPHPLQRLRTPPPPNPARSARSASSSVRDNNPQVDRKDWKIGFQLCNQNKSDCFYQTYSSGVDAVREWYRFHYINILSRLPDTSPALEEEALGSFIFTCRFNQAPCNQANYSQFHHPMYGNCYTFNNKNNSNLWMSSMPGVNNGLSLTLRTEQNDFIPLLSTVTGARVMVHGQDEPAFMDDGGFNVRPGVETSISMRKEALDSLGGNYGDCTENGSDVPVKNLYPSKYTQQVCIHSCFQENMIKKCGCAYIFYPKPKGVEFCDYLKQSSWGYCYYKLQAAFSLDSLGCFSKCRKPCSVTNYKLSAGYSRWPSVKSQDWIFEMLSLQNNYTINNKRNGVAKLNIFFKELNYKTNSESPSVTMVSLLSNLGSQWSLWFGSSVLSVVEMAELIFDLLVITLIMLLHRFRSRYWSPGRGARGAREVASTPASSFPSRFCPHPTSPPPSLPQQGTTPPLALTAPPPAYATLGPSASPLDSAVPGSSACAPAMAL

molecular target: epithelial sodium channel alpha subunit (α-ENaC) (mouse (endogenous in MIN6)) (UniProt Q61180); assay: affinity purification with mass spectrometry; LC-MS/MS screen for α-ENaC binding proteins in MIN6 cells; how α-ENaC was isolated is not told

Binder | binding
Isoform 3 of N-alpha-acetyltransferase 50 (protein, UniProt Q6PGB6-3 1-129) MKGSRIELGDVTPHNIKQLKRLNQVIFPVSYNDKFYKDVLEVGELAKLGTKMLNHVLNICEKDGTFDNIYLHVQISNESAIDFYRKFGFEIIETKKNYYKRIEPADAHVLQKNLKVPSGQNAETQKTDN | binds
ATP-citrate synthase (protein, UniProt Q91V92 1-1091) MSAKAISEQTGKELLYKYICTTSAIQNRFKYARVTPDTDWAHLLQDHPWLLSQSLVVKPDQLIKRRGKLGLVGVNLSLDGVKSWLKPRLGHEATVGKAKGFLKNFLIEPFVPHSQAEEFYVCIYATREGDYVLFHHEGGVDVGDVDAKAQKLLVGVDEKLNTEDIKRHLLVHAPEDKKEVLASFISGLFNFYEDLYFTYLEINPLVVTKDGVYILDLAAKVDATADYICKVKWGDIEFPPPFGREAYPEEAYIADLDAKSGASLKLTLLNPKGRIWTMVAGGGASVVYSDTICDLGGVNELANYGEYSGAPSEQQTYDYAKTILSLMTREKHPEGKILIIGGSIANFTNVAATFKGIVRAIRDYQGPLKEHEVTIFVRRGGPNYQEGLRVMGEVGKTTGIPIHVFGTETHMTAIVGMALGHRPIPNQPPTAAHTANFLLNASGSTSTPAPSRTASFSESRADEVAPAKKAKPAMPQGKSATLFSRHTKAIVWGMQTRAVQGMLDFDYVCSRDEPSVAAMVYPFTGDHKQKFYWGHKEILIPVFKNMADAMKKHPEVDVLINFASLRSAYDSTMETMNYAQIRTIAIIAEGIPEALTRKLIKKADQKGVTIIGPATVGGIKPGCFKIGNTGGMLDNILASKLYRPGSVAYVSRSGGMSNELNNIISRTTDGVYEGVAIGGDRYPGSTFMDHVLRYQDTPGVKMIVVLGEIGGTEEYKICRGIKEGRLTKPVVCWCIGTCATMFSSEVQFGHAGACANQASETAVAKNQALKEAGVFVPRSFDELGEIIQSVYEDLVAKGAIVPAQEVPPPTVPMDYSWARELGLIRKPASFMTSICDERGQELIYAGMPITEVFKEEMGIGGVLGLLWFQRRLPKYSCQFIEMCLMVTADHGPAVSGAHNTIICARAGKDLVSSLTSGLLTIGDRFGGALDAAAKMFSKAFDSGIIPMEFVNKMKKEGKLIMGIGHRVKSINNPDMRVQILKDFVKQHFPATPLLDYALEVEKITTSKKPNLILNVDGFIGVAFVDMLRNCGSFTREEADEYVDIGALNGIFVLGRSMGFIGHYLDQKRLKQGLYRHPWDDISYVLPEHMSM | binds
5′-nucleotidase domain-containing protein 3 (protein, UniProt Q3UHB1 1-546) MATVAAAARGAGARAAAGLRSCGGAVARERPRSGCARRLCSAPAAPAAVDMKSYLWARYHEAKRSTDELVPSIMNNLLNPDAIFSNNEMSLSDIEIYGFDYDYTLVFYSKHLHTLIFNAARDLLINEHRYPVEIRKYEYDPSFAIRGLHYDVQRAVLMKIDAFHYIQMGTVYRGLSVVPDEEVIDMYEGSHVPLEQMSDFYGKSSHGNTMKQFMDIFSLPEMTLLSCVNEHFLKNNIDYEPVHLYKDVKDSIRDVHIKGIMYRAIEADIEKYICYADQTRAVLAKLAAHGKKMFLITNSPSSFVDKGMRYIVGKDWRDLFDVVIVQAEKPNFFNDKRRPFRKVNEKGVLLWDKIHKLQKGQIYKQGNLYEFLKLTGWRGSKVLYFGDHIYSDLADLTLKHGWRTGAIIPELRSELRIMNTEQYIQTMTWLQTLTGLLEQMQVHRDAESQLVLQEWKKERKEMREMTKSFFNAQFGSLFRTDQNPTYFLRRLSRFADIYMASLSCLLNYDVHHTFYPRRTPLQHELPAWSDSPSAFKAPLLQEAQAK | binds

No constants are given. Whether binding was seen depends on the method and setting. In cells and extracts the contact can be indirect. A yes stands for co-enrichment or nearness to the bait. Other partners may have been found.
